The data set is described as follows: general procedure: solution-phase peptide synthesis; HATU/N,N-diisopropylethylamine; EDC/HOBt/N,N-diisopropylethylamine. To be noted: trifluoroacetate; for step yield: late stage modification step; for conjugation yield: conjugation step.

This note sets out measurements from patent US20150023989A1 (SEATTLE GENETICS, INC., priority 2011, published 2015).

Consider “N-(6-aminohexyl)-N-methyl-L-valyl-N-[(3R,4S,5S)-1-{(2S)-2-[(1R,2R)-3-{[(1S,2R)-1-(1,4-dihydro-3H-2,3-benzoxazin-3-ylcarbonyl)-2-phenylcyclopropyl]amino}-1-methoxy-2-methyl-3-oxopropyl]pyrrolidin-1-yl}-3-methoxy-5-methyl-1-oxoheptan-4-yl]-N-methyl-L-valinamide”, for which the step yield (over 2 stages) stood at 23%.
“N-(4-{2-[6-(2,5-dioxo-2,5-dihydro-1H-pyrrol-1-yl)hexanoyl]hydrazino}-4-oxobutyl)-N-methyl-L-valyl-N-[(3R,4S,5S)-3-methoxy-1-{(2S)-2-[(1R,2R)-1-methoxy-2-methyl-3-oxo-3-{[(1S,2R)-2-phenyl-1-(propylcarbamoyl)cyclopropyl]amino}propyl]pyrrolidin-1-yl}-5-methyl-1-oxoheptan-4-yl]-N-methyl-L-valinamide” gave a conjugation yield of 22%.
As to “N-{4-[(2,5-dioxopyrrolidin-1-yl)oxy]-4-oxobutyl}-N-methyl-L-valyl-N-[(3R,4S,5S)-1-{(2S)-2-[(1R,2R)-3-{[(2S,3S)-1-(benzyloxy)-1-oxo-3-phenylbutan-2-yl]amino}-1-methoxy-2-methyl-3-oxopropyl]pyrrolidin-1-yl}-3-methoxy-5-methyl-1-oxoheptan-4-yl]-N-methyl-L-valinamide”, the step yield amounted to 56%.
In the case of “N-(4-{2-[6-(2,5-dioxo-2,5-dihydro-1H-pyrrol-1-yl)hexanoyl]-1-methylhydrazino}-4-oxobutyl)-N-methyl-L-valyl-N-[(3R,4S,5S)-3-methoxy-1-{(2S)-2-[(1R,2R)-1-methoxy-2-methyl-3-{[(1S,2R)-1-(1,2-oxazinan-2-ylcarbonyl)-2-phenylcyclopropyl]amino}-3-oxopropyl]pyrrolidin-1-yl}-5-methyl-1-oxoheptan-4-yl]-N-meth”, the conjugation yield came out at 30%.
